Data as given in PubChem BioAssay AID1259261 (Sanger Institute, 2017).
Here is a random part of 794 deposited reagents. 10 of them (1.3%) count as active. 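Calls reflect knock-down alone without drug; synergy scores with BYL719, cetuximab or trametinib do not affect calls.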 Entries without a mark were called inactive. No viability above 1 is reported: the scale is capped. Further read-outs or replicates are left out here. Not given: the amount of reagent, the time to read-out.

- Purpose: 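siRNA screen across the kinome for kinases that are essential and partners synergising with drugs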 (primary screen)
- Cells: HCC2998 human colorectal cancer cells
- Knock-down reagent: siRNA pool against human genes
- Conditions: anchor drugs BYL719 1 µM, cetuximab 5 µg/ml or trametinib 10 nM, each compared with DMSO vehicle
- Measurement: 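Cell viability relative to non-targeting siRNA, averaged over replicates, with robust z-score for siRNA alone and synergy scores with each anchor drug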
- Reading the numbers: viability z-score, knock-down alone: higher = more viable cells than controls; viability fraction, knock-down alone: higher = more viable cells
- Call rule: 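a knock-down is called essential if its robust z-score without drug is under -3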
- Calls: active = essential; inactive = no change

DAPK2 (death associated protein kinase 2)
- viability z-score, knock-down alone: 0.97
- viability fraction, knock-down alone: 0.971

EPHA5 (EPH receptor A5)
- viability z-score, knock-down alone: 0.0844
- viability fraction, knock-down alone: 0.859

PSTK (phosphoseryl-tRNA kinase)
- viability z-score, knock-down alone: -0.387
- viability fraction, knock-down alone: 0.8

RSKR (ribosomal protein S6 kinase related)
- viability z-score, knock-down alone: 0.779
- viability fraction, knock-down alone: 0.947

AURKA (aurora kinase A)
- viability z-score, knock-down alone: -1.82
- viability fraction, knock-down alone: 0.621

RAD21 (RAD21 cohesin complex component)
- viability z-score, knock-down alone: -1.48
- viability fraction, knock-down alone: 0.663

CSNK1A1L (casein kinase 1 alpha 1 like)
- viability z-score, knock-down alone: 0.65
- viability fraction, knock-down alone: 0.93

DGUOK (deoxyguanosine kinase)
- viability z-score, knock-down alone: -1.64
- viability fraction, knock-down alone: 0.643

IKBKE (inhibitor of nuclear factor kappa B kinase subunit epsilon)
- viability z-score, knock-down alone: -2.84
- viability fraction, knock-down alone: 0.492

PRKAB2 (protein kinase AMP-activated non-catalytic subunit beta 2)
- viability z-score, knock-down alone: 1.21
- viability fraction, knock-down alone: 1

PIK3R1 (phosphoinositide-3-kinase regulatory subunit 1)
- viability z-score, knock-down alone: 0.0203
- viability fraction, knock-down alone: 0.851

PIK3R3 (phosphoinositide-3-kinase regulatory subunit 3)
- viability z-score, knock-down alone: 1.01
- viability fraction, knock-down alone: 0.976

IP6K1 (inositol hexakisphosphate kinase 1)
- viability z-score, knock-down alone: 1.21
- viability fraction, knock-down alone: 1

PIP4K2B (phosphatidylinositol-5-phosphate 4-kinase type 2 beta)
- viability z-score, knock-down alone: 0.297
- viability fraction, knock-down alone: 0.886

GALK1 (galactokinase 1)
- viability z-score, knock-down alone: -1.39
- viability fraction, knock-down alone: 0.674

RIPK1 (receptor interacting serine/threonine kinase 1)
- viability z-score, knock-down alone: 1.15
- viability fraction, knock-down alone: 0.993

MAPK9 (mitogen-activated protein kinase 9)
- viability z-score, knock-down alone: 1.21
- viability fraction, knock-down alone: 1

ROCK2 (Rho associated coiled-coil containing protein kinase 2)
- viability z-score, knock-down alone: 0.365
- viability fraction, knock-down alone: 0.895

NTRK3 (neurotrophic receptor tyrosine kinase 3)
- viability z-score, knock-down alone: 1.13
- viability fraction, knock-down alone: 0.991

FASTK (Fas activated serine/threonine kinase)
- viability z-score, knock-down alone: 1
- viability fraction, knock-down alone: 0.975

RPS6KA4 (ribosomal protein S6 kinase A4)
- viability z-score, knock-down alone: 0.627
- viability fraction, knock-down alone: 0.928

CDC42BPG (CDC42 binding protein kinase gamma)
- viability z-score, knock-down alone: 0.517
- viability fraction, knock-down alone: 0.914

RPS6KB2 (ribosomal protein S6 kinase B2)
- viability z-score, knock-down alone: 1.21
- viability fraction, knock-down alone: 1

EEF2K (eukaryotic elongation factor 2 kinase)
- viability z-score, knock-down alone: -0.754
- viability fraction, knock-down alone: 0.754

PRKCZ (protein kinase C zeta)
- viability z-score, knock-down alone: -0.697
- viability fraction, knock-down alone: 0.761

DYRK1B
- viability z-score, knock-down alone: 0.145
- viability fraction, knock-down alone: 0.867

TSKS (testis specific serine kinase substrate)
- viability z-score, knock-down alone: 0.139
- viability fraction, knock-down alone: 0.866

NME7 (NME/NM23 family member 7)
- viability z-score, knock-down alone: 1.21
- viability fraction, knock-down alone: 1

KALRN (kalirin RhoGEF kinase)
- viability z-score, knock-down alone: -0.601
- viability fraction, knock-down alone: 0.774

NME2 (NME/NM23 nucleoside diphosphate kinase 2)
- viability z-score, knock-down alone: 0.826
- viability fraction, knock-down alone: 0.952

FBXW7 (F-box and WD repeat domain containing 7)
- viability z-score, knock-down alone: 0.717
- viability fraction, knock-down alone: 0.939

ADCK2 (aarF domain containing kinase 2)
- viability z-score, knock-down alone: -0.2
- viability fraction, knock-down alone: 0.824

DGKH (diacylglycerol kinase eta)
- viability z-score, knock-down alone: 0.746
- viability fraction, knock-down alone: 0.942

AGK (acylglycerol kinase)
- viability z-score, knock-down alone: 1.16
- viability fraction, knock-down alone: 0.995

CDK16 (cyclin dependent kinase 16)
- viability z-score, knock-down alone: -0.563
- viability fraction, knock-down alone: 0.778

MAP4K1 (mitogen-activated protein kinase kinase kinase kinase 1)
- viability z-score, knock-down alone: -0.442
- viability fraction, knock-down alone: 0.793

Looked up above:
NTRK3 (neurotrophic receptor tyrosine kinase 3), viability z-score, knock-down alone = 1.13
Under “viability fraction, knock-down alone”, AGK (acylglycerol kinase) is entered as 0.995
DGKH (diacylglycerol kinase eta), viability fraction, knock-down alone: 0.942
IP6K1 (inositol hexakisphosphate kinase 1), viability z-score, knock-down alone → 1.21
